Data published in article PMC4951266.
No constants are given. Whether binding was seen depends on the method and setting. For some assays here: In cells and extracts the contact can be indirect. Some results given as binding are weak or reduced against the parent protein; the word gives no strength.

Chains of the proteins cited; added tags and fusions are not shown. Lines headed by an entry give the natural chain unless they say otherwise; changes in a name come on top. Residues count along the entry.
UniProt P35222: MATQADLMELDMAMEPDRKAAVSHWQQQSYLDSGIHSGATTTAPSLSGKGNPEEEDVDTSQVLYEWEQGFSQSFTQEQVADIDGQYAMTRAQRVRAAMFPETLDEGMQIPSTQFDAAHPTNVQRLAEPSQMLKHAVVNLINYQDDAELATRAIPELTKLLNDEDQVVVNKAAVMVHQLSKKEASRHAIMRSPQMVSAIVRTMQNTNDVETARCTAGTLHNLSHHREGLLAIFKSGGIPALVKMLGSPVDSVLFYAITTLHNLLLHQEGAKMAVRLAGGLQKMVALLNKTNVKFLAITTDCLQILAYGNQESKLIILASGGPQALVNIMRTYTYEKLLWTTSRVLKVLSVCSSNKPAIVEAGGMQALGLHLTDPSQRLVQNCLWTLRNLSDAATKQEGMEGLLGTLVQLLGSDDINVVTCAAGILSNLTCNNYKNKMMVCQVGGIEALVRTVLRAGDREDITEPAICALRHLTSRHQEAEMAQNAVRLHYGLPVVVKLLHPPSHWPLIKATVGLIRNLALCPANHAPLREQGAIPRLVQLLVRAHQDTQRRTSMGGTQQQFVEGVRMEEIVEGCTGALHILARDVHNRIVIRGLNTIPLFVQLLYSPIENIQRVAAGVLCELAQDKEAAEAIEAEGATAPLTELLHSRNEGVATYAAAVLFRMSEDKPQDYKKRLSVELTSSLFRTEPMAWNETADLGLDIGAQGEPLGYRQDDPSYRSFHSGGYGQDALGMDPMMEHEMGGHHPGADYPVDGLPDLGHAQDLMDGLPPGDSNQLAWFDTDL
pBIND-β-catenin: residues 2-781 of P35222
UniProt P35240: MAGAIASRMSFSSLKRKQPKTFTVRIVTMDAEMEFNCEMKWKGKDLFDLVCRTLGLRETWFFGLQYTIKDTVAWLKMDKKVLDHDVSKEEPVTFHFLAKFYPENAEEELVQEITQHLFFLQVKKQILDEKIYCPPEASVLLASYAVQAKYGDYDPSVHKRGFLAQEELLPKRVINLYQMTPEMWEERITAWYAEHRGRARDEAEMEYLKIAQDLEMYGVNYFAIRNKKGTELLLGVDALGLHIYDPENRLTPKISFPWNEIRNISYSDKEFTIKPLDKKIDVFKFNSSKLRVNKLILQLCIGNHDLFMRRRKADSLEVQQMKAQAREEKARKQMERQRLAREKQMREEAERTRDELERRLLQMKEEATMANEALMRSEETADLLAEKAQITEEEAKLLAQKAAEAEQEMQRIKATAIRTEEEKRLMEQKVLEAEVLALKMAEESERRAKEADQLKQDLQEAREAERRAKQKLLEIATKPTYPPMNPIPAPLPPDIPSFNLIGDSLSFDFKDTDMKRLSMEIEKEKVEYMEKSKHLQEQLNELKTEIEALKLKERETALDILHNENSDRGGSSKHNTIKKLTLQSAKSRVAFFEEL

What was measured:
[1] = target: β-catenin (human (endogenous in SUM159, MCF10AT, MCF7)) (UniProt P35222); assay: co-IP; lysate (1 mg) of SUM159 cells transfected with Merlin; IP with anti-Merlin or anti-β-catenin (reverse), protein A/G agarose, 4°C, immunoblot
[2] = target: Merlin (endogenous, MCF10AT) (human (endogenous in MCF10AT)) (UniProt P35240); assay: co-IP; pooled FPLC fractions 14, 15 and 16 of MCF10AT lysate; IP with anti-Merlin or anti-β-catenin, immunoblot
[3] = target: Merlin (UniProt P35240); assay: co-IP; lysate (1 mg) of SUM159 cells transfected with Merlin; IP with anti-Merlin or anti-β-catenin (reverse), protein A/G agarose, 4°C, immunoblot
[4] = target: β-catenin (human (endogenous in SUM159, MCF10AT, MCF7)) (UniProt P35222); assay: co-IP; pooled FPLC fractions 14, 15 and 16 of MCF10AT lysate; IP with anti-Merlin or anti-β-catenin, immunoblot
[5] = target: pBIND-β-catenin (UniProt P35222); assay: two-hybrid; mammalian two-hybrid luciferase assay in SUM159 cells: pACT-Merlin, pBIND-β-catenin and pGL4.31 co-transfected; luciferase normalised to total protein

Merlin (from UniProt P35240 1-595) was tested, and the binding [1] was “binds”.

β-catenin (from UniProt P35222 1-781) was tested, and the binding [2] was “binds” and the binding [3] was “binds”.

“Merlin (endogenous, MCF10AT) (from UniProt P35240 1-595)” was tested, and the binding [4] was “binds”.

With pACT-Merlin (from UniProt P35240 2-595) the binding [5] was “binds”.
